Patent US20240319202A1, “METHOD FOR EVALUATING AGGREGATION STATE OF AGGREGATIVE PROTEIN” (HAMAMATSU PHOTONICS K.K., priority 2023, published 2024)

Tested on: insulin
Assay: Evaluation of aggregation state of heat-denatured insulin using light-absorption/fluorescence characteristics of rose bengal as index
Details: insulin 17 μM, dye 1 μM, heat-stirred at 55° C.
Description: 40 mg of insulin (manufactured by FUJIFILM Wako Pure Chemical Corporation) was added to 2 mL of an aqueous solution of 25 mM of hydrochloric acid and 100 mM of sodium chloride, and dissolved by being left to stand. The obtained insulin solution was heat-stirred at 200 rpm at 55° C. to cause heat denaturation of the insulin, thereby starting the aggregation reaction of the insulin. At 0, 5, 10, 15, 20, 25, 30, 35, 40, 50, 60, 70, 80, and 90 minutes after starting heat-stirring, each of 100 μL of the insulin solution was extracted and ice-cooled. The ice-cooled insulin solution, and rose bengal (manufactured by FUJIFILM Wako Pure Chemical Corporation) were added to distilled water such that final concentrations were each 17 μM and 1 μM. The obtained solution was put in a spectroscopic measurement cell to measure the light-absorption/fluorescence characteristics. The excitation wavelength in fluorescence measurement was 530 nm.

With O=C(O)c1c(Cl)c(Cl)c(Cl)c(Cl)c1-c1c2cc(I)c(=O)c(I)c-2oc2c(I)c(O)c(I)cc12 [rose bengal] the “heat denaturation time at the minimum point of absorbance at around 560 nm and maximum absorbance (decreasing, thereafter increasing)” value (25 mM HCl/100 mM NaCl, absorption) was “around 30 minutes” and the “heat denaturation time at the minimum point of fluorescence intensity at around 570 nm and maximum fluorescence intensity (decreasing, thereafter increasing)” value (excitation 530 nm) was “around 30 minutes”.
